From publication doi:10.1101/2021.10.31.466654
No constants are given. Whether binding was seen depends on the method and setting. Some entries that bind do so weakly or less than the wild type. Blank lines part the entries; values can stand above or below the molecule they belong to.

By UniProt entry, the sequences of proteins in these tests, tags left out. Where a name states a change or a piece, a line headed by the entry shows the natural chain unless it says otherwise. Chains listed by the source or under a name are the forms on record and can include a tag or linker. Residues count along the entry.
WT GPI-anchored mouse CRT expressed on B16 (P14211, residues 18-416): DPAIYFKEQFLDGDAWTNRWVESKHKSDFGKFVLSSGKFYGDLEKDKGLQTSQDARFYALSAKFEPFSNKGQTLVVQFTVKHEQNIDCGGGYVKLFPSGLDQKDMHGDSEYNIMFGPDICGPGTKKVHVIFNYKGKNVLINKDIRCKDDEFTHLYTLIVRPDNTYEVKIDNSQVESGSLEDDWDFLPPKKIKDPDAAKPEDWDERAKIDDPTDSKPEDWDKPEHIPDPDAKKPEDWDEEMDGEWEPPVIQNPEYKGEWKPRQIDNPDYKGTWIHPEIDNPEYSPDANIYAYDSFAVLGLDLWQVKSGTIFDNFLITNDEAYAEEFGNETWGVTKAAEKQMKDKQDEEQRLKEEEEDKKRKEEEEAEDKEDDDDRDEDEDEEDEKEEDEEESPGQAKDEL
GPI-anchored mouse CRT D237A expressed on B16 (P14211, form named): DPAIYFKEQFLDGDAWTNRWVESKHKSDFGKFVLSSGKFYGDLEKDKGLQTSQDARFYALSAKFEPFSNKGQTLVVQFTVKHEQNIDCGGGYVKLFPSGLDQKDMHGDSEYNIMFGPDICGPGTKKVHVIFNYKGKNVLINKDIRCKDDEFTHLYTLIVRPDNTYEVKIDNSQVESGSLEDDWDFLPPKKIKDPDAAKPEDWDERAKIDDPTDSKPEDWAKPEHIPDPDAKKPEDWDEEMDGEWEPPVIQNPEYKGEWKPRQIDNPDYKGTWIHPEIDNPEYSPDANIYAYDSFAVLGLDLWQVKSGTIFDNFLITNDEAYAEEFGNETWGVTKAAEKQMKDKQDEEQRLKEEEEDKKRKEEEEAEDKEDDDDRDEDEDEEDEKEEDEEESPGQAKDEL
GPI-anchored mouse CRT D258A expressed on B16 (P14211, form named): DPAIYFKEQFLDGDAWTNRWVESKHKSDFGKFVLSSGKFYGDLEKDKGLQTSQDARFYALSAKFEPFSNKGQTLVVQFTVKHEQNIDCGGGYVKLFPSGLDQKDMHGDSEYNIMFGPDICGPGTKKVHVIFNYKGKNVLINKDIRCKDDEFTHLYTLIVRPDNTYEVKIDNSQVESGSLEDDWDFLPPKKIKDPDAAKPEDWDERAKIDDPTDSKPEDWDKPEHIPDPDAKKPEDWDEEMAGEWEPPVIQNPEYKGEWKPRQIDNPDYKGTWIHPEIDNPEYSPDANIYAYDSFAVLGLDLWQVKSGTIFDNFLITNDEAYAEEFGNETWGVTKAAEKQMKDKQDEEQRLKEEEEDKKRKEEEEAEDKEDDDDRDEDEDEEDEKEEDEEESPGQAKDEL
GPI-anchored mouse CRT D244A expressed on B16 (P14211, form named): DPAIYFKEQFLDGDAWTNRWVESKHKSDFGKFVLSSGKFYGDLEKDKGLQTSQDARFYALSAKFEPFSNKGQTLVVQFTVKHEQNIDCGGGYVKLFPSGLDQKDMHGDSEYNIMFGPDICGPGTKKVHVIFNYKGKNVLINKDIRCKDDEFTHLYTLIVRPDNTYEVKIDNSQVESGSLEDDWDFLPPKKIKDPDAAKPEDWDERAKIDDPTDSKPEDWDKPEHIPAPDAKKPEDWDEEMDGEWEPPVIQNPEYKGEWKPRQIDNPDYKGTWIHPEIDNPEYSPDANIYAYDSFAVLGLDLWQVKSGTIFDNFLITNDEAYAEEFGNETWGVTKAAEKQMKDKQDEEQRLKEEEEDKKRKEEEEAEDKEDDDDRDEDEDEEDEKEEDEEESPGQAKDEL
UniProt O43699, residues 27-347: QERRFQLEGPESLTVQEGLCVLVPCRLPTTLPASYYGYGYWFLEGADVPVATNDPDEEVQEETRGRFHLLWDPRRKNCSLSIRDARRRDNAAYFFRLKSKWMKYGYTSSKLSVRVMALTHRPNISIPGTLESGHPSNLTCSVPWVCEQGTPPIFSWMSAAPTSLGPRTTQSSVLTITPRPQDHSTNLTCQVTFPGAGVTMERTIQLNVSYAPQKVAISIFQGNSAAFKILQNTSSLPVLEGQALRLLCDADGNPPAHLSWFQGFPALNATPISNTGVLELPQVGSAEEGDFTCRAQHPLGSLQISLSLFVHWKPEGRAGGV
UniProt Q9NYZ4, residues 17-363: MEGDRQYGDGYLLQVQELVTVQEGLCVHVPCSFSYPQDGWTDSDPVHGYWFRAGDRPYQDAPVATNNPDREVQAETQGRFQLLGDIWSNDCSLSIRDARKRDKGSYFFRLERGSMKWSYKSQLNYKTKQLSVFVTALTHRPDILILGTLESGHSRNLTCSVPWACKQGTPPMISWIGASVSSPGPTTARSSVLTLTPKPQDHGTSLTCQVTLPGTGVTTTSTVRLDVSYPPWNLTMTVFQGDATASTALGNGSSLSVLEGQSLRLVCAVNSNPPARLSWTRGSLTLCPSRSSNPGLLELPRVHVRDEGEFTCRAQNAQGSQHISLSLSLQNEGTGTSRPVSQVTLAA

What was measured:
[1] = target: Alexa647-labeled NKp46-Fc (human) (UniProt O76036); assay: MST
[2] = target: neuraminidase treated Alexa647-labeled NKp46-Fc (human) (UniProt O76036); assay: MST
[3] = target: GPI-anchored mouse CRT D237A expressed on B16 (mouse) (UniProt P14211); assay: flow cytometry on cells
[4] = target: GPI-anchored mouse CRT D258A expressed on B16 (mouse) (UniProt P14211); assay: flow cytometry on cells
[5] = target: GPI-anchored mouse CRT D244A expressed on B16 (mouse) (UniProt P14211); assay: flow cytometry on cells
[6] = target: WT GPI-anchored mouse CRT expressed on B16 (mouse) (UniProt P14211); assay: flow cytometry on cells

Molecule: His-tagged CRT (from UniProt P27797 18-417)
binding [2]: binds

B1: NCR1-Ig (Fc fusion, UniProt Q8C567)
chain: QRINTEKETLPKPIIWAKPSIMVTNGNSVNIWCQGAQSASEYQLYFEGSFFALERPKPSRSMNKVRFFISQMTSHTAGIYTCFYQSGELWSKSSNPLKLVVTGLYDTPNLWVYPRPEVTLGENVTFFCQLKTATSKFFLLKERGSNHIQNKYGNIQAEFPMGPVTRAHRGTYRCFGSYNDYAWSFPSEPVTLLITGGVENSSLAPTDPTSSLDYWEFDLSTNESGLQKDSAFWDHTTQN
binding [3]: no binding (tested: 50 μg/ml)
binding [4]: no binding (tested: 50 μg/ml)
binding [5]: binds
binding [6]: binds

Next, values leading:

binding [1]: binds
Molecule: Siglec6-His tag (from UniProt O43699)

binding [1]: binds
Molecule: Siglec8-His tag (from UniProt Q9NYZ4)
